The values that follow come from US20210032312A1.

Chains of the proteins cited; added tags and fusions are not shown. Lines headed by an entry give the natural chain unless they say otherwise; changes in a name come on top. A line that says so, or that is headed by a name, gives the form on record, which may keep a tag or linker. Residues count along the entry.
UniProt P01732: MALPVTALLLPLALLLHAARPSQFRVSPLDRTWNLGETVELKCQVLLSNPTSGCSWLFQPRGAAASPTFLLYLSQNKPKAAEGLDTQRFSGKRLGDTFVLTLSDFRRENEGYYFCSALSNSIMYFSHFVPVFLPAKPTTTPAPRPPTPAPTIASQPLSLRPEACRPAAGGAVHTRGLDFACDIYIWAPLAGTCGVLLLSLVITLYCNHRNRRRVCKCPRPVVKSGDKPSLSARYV
human CD8A on cells: residues 22-235 of P01732
recombinant human CD8 alpha fused to Fc fragment of human IgG1: residues 22-182 of P01732

The target in experiment [1] is recombinant human CD8 alpha fused to Fc fragment of human IgG1 (human) (UniProt P01732). Kind of experiment: SPR on recombinant human CD8 alpha.
For experiment [2] the target is unchanged. Kind of experiment: ELISA, biotinylated CD8W7 or CD8W13. (An ELISA detects its analyte on a solid surface through an enzyme-linked reagent.)
Experiment [3] has the same target. Kind of experiment: SPR dissociation rate on recombinant CD8 alpha.
Experiment [4] concerns the target human CD8A on cells (human) (UniProt P01732). Kind of experiment: MSD-CAT equilibrium cell-binding assay, primary human cytotoxic T cells.

Results are given in words; binding and its absence hold for the method and conditions named. Some binding calls cover weakened binding; strength is not graded here.

B1: CD8S370-DFO (designed binder)
chain: LPAPKNLVVSRVTEDSARLSWTAPDAAFDSFAITYIEKEHIEDGEAIVLTVPGSCRSYDLTGLKPGTEYWVPIWGVKGGANSWPLSAIFTT
modifications: Deferoxamine (DFO) conjugated to the free cysteine of E54C
In the case of B1, the binding result in experiment [1] is recorded as “binds”.

B2: P283BR9P1363_E4 (designed binder)
chain: LPAPKNLVVSRVTEDSARLSWIKSETSQPAFDSFLIQYQESEKVGEAIVLTVPGSERSYDLTGLKPGTEYTVSIYGVDVKWEGNRPVASNPLSAIFTT
As for B2, in experiment [2], the binding entry is “binds”.

B3: CD8S369-DFO (designed binder)
chain: LPAPKNLVVSRVTEDSARLSWAKRPGAFDSFLIQYQESEKVGEAIVLTVPGSCRSYDLTGLKPGTEYTVSIYGVDVKYDIDSRPISSNPLSAIFTT
modifications: Deferoxamine (DFO) conjugated to the free cysteine of E54C
Turning to B3, the binding entry in experiment [1] is given as “binds”.

B4: CD8S390 (designed binder)
chain: LPAPKNLVVSRVTEDSARLSWTAPDAAFDSFGILYYEPVDSGEAITLPVPGSERSYDLTGLKPGTEYYVVITGVKGGAPSTPLGTIFTT
In the case of B4, in experiment [3], the binding entry was “binds”.

B5: CD8S365-DFO (designed binder)
chain: LPAPKNLVVSRVTEDSARLSWTAPDAAFDSFGILYYEPVDSGEAITLPVPGSCRSYDLTGLKPGTEYWVVITGVKGGAPSTPLGTIFTT
modifications: Deferoxamine (DFO) conjugated to the free cysteine of E54C
Consider B5, for which, in experiment [1], the binding result is “binds”.

B6: CD8S402 (designed binder)
chain: LPAPKNLVVSRVTEDSARLSWTAPDAAFDSFWITYPEWPPPGGEAIVLTVPGSERSYDLTGLKPGTEYFVVIYGVKGGEIYSPLSAIFTT
Regarding B6, in experiment [3], the binding result is recorded as “binds”.

B7: CD8S366-DFO (designed binder)
chain: LPAPKNLVVSRVTEDSARLSWTAPDAAFDSFWITYPEWPDPGGEAIVLTVPGSCRSYDLTGLKPGTEYFVVIYGVKGGEIYSPLSAIFTT
modifications: Deferoxamine (DFO) conjugated to the free cysteine of E54C
As for B7, the binding result in experiment [1] is “binds”.

B8: CD8S403 (designed binder)
chain: LPAPKNLVVSRVTEDSARLSWTAPDAAFDSFAIAYAEWPPQGEAIVLTVPGSERSYDLTGLKPGTEYFVVIYGVKGGSYSAPLSAIFTT
As for B8, in experiment [3], the binding result is “binds”.

B9: CD8S368 (designed binder)
chain: LPAPKNLVVSRVTEDSARLSWTAPDAAFDSFQIAYPEWPPPGEAIVLTVPGSCRSYDLTGLKPGTEYFVIIQGVKGGVESWPLSAIFTT
Regarding B9, the binding result in experiment [4] is listed as “binds”.

B10: CD8S368-DFO (designed binder)
chain: LPAPKNLVVSRVTEDSARLSWTAPDAAFDSFQIAYPEWPPPGEAIVLTVPGSCRSYDLTGLKPGTEYFVIIQGVKGGVESWPLSAIFTT
modifications: Deferoxamine (DFO) conjugated to the free cysteine of E54C
As to B10, in experiment [1], the binding result is given as “binds”.

B11: CD8S367-DFO (designed binder)
chain: LPAPKNLVVSRVTEDSARLSWTAPDAAFDSFAIAYPEWPPQGEAIVLTVPGSCRSYDLTGLKPGTEYFVVIYGVKGGSYSAPLSAIFTT
modifications: Deferoxamine (DFO) conjugated to the free cysteine of E54C
Take B11: in experiment [1], the binding entry is reported as “binds”.
